# The exact form of at least one protein or probe is not confirmed.
# Target: lysozyme (UniProt P00698)
# Assay: binding assay
# Conditions: literature value, 25 mM trizma, 192 mM glycine, 5 mM potassium phosphate, pH 8.3; 5' thiol-C6 (SH-C6), immobilized on gold in SAM; 1x HBS, pH 7.4, redox reporter (ferricyanide or methylene blue) in solution; aptamer on gold electrode; temperature not stated; commercial protein; single-stranded DNA
sequence,measurement,value
AGCAGCACAGAGGTCAGATGGCAGGTAAGCAGGCGGCTCACAAAACCATTCGCATGCGGC [lysozyme aptamer (thiolated)],Kd,3 nM

# Reference: article PMC7218866
